In paper PMC10552648:
These are yes or no findings as the source states them, for the method shown. In cells and extracts the contact can be indirect. Some results given as binding are weak or reduced against the parent protein; the word gives no strength. Sequences can lack the tags named with a protein.

Target: FLAG-p62 WT (human) (UniProt Q13501)
Assay: co-IP; HA-ZDHHC19 and FLAG-p62 co-expressed; FLAG-p62 IP in HEK293T cells, HA-ZDHHC19 IP in NRK cells; lysis buffer 50 mM Tris-HCl pH 7.5, 150 mM NaCl, 1% NP-40; protein A/G magnetic beads, 4°C overnight

binding: binds
B1: HA-ZDHHC19 (enzyme, UniProt Q810M5 1-347)
chain: MPFLKDAVTLVKEPQQLPSIPLSWFPSSVFAAFNVTLLLFLSGLFFGFPCRWLVQNGEWAFPAITGPLFILTFFSLVSLNFSDPGILHRGSTKEDPMTVHVVRVNQRAFRLEWCPKCLFHRPPRTYHCPWCNICVEDFDHHCKWVNNCIGHRNFRLFMLLVLSLCLYSGALLVTCLTFLFRTRHLPFSLDKGMAILVAVPAAGFLIPLFLLLLIQALSVSRAESSYESKCRYHPEYNPFDQGFAKNWYLAMFAPLGPNYMSEVVCLQRPVGTAWIQEKTKPSPPRRPKHCRPGPPGPQHQPRRVPGKGPPGSGEAAALQEMRRLPASVEKSPGGPRQPTAEPAAGDP
